The target of test [1] is Sec5 (endogenous exocyst subunit) (mouse (endogenous in NIH/3T3)) (UniProt Q9D4H1). As to the kind of experiment: proximity ligation; Duolink PLA kit with anti-Gli2 and anti-Sec5 antibodies in NIH/3T3 Flp-In mouse fibroblasts.
The target in test [2] is Sec3 (endogenous exocyst subunit) (UniProt Q8R3S6). As to the kind of experiment: co-IP; endogenous proteins, co-immunoprecipitation with Sec3 (Fig. 2a, Supplementary Fig. S1a); beads and cells not told in the text shown.
In test [3] the target is Sec5 (endogenous exocyst subunit) (mouse (endogenous in NIH/3T3)) (UniProt Q9D4H1). As to the kind of experiment: co-IP; endogenous proteins; beads coated with anti-Sec5 antibodies, rabbit IgG as control; lysis buffer 50 mM Tris pH 7.4, 1% NP-40, 150 mM NaCl, 0.25% sodium deoxycholate; overnight 4 °C; western blot.

Amino acid sequences for entries named in this document (tags omitted).
UniProt Q9D4H1: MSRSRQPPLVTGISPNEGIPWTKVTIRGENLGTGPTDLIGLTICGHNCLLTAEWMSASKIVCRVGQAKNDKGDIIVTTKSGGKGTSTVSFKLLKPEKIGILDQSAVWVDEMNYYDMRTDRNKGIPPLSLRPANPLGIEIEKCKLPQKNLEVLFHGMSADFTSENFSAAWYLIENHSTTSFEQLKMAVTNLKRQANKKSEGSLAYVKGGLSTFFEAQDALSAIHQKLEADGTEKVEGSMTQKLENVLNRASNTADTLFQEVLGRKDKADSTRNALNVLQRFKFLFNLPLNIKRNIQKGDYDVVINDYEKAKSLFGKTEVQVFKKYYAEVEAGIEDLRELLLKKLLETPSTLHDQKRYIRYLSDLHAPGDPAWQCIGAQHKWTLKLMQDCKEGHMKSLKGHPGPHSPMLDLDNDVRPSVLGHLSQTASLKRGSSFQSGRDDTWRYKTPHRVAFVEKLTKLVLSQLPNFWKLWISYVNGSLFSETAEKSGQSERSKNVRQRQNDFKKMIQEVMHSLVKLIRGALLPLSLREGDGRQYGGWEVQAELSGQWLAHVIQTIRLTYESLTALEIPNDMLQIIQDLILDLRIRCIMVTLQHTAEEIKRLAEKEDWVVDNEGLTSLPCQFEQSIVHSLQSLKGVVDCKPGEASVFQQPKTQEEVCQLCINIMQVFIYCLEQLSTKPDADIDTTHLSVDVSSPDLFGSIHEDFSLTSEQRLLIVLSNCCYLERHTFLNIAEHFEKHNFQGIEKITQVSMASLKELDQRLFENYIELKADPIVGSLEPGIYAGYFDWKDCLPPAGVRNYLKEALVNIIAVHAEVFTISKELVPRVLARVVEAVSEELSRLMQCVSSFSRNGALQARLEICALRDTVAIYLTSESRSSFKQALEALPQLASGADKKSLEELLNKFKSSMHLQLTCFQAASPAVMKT
UniProt Q8R3S6: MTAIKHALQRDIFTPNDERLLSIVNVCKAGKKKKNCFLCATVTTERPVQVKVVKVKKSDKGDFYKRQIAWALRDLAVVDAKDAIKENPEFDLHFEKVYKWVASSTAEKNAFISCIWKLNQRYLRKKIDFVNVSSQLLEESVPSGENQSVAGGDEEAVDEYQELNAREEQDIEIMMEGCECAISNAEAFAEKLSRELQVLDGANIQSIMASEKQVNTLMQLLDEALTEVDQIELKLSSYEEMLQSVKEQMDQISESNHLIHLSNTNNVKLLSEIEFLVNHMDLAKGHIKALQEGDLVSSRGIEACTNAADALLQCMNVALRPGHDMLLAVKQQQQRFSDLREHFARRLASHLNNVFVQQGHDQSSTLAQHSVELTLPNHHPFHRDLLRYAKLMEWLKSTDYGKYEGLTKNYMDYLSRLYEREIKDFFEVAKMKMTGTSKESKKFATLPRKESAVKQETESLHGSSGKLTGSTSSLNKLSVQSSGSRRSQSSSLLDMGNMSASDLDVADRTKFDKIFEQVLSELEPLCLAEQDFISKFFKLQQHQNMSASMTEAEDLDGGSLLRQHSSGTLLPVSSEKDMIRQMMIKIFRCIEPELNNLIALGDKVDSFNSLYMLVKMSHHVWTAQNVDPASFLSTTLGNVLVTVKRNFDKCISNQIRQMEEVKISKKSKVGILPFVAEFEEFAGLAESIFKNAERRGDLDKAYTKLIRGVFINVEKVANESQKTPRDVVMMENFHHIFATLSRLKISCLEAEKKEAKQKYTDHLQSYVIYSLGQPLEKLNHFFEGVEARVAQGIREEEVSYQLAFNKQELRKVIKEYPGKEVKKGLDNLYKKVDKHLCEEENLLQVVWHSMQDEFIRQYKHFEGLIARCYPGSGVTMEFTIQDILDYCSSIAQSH
UniProt Q0VGT2: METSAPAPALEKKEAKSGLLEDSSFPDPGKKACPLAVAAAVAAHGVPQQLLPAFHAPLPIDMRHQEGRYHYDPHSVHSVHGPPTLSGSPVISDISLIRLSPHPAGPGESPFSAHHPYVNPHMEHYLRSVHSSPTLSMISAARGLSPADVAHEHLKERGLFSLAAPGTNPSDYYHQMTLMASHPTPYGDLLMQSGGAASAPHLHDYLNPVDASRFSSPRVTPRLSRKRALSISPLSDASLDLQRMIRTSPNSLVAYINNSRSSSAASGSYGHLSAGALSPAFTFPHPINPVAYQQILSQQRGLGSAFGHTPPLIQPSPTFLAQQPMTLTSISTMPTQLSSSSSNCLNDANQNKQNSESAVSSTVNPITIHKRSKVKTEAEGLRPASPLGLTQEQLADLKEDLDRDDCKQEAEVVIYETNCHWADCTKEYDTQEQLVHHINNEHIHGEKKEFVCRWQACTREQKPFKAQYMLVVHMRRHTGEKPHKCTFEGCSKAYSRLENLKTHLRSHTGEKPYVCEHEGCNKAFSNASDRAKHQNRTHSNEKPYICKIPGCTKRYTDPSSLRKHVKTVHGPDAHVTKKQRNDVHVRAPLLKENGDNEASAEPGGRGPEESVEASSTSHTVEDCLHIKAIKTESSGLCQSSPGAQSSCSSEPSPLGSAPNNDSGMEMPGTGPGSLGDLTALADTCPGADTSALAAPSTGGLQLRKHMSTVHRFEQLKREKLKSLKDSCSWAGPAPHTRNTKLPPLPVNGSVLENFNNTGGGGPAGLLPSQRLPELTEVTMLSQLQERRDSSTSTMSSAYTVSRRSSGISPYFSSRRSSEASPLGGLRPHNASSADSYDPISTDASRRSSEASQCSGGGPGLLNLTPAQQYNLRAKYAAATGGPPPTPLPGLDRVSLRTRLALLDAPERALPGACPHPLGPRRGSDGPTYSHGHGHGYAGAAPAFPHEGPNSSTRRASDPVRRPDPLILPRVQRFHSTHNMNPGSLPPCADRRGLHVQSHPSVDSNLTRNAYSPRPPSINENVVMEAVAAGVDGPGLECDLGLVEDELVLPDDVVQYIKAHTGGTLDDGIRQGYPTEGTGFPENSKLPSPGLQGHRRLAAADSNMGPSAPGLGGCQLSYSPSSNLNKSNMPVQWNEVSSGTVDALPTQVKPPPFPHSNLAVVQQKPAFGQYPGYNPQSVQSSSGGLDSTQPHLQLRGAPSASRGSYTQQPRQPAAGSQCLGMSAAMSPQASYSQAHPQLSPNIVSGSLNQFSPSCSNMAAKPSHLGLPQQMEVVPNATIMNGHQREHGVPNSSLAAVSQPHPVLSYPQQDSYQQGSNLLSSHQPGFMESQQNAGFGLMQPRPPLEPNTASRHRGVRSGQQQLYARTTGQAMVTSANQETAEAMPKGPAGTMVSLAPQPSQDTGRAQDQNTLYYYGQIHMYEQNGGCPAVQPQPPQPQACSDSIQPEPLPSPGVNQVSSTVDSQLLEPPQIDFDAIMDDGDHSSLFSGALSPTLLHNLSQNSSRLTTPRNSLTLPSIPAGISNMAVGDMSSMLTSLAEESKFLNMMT
UniProt Q61602: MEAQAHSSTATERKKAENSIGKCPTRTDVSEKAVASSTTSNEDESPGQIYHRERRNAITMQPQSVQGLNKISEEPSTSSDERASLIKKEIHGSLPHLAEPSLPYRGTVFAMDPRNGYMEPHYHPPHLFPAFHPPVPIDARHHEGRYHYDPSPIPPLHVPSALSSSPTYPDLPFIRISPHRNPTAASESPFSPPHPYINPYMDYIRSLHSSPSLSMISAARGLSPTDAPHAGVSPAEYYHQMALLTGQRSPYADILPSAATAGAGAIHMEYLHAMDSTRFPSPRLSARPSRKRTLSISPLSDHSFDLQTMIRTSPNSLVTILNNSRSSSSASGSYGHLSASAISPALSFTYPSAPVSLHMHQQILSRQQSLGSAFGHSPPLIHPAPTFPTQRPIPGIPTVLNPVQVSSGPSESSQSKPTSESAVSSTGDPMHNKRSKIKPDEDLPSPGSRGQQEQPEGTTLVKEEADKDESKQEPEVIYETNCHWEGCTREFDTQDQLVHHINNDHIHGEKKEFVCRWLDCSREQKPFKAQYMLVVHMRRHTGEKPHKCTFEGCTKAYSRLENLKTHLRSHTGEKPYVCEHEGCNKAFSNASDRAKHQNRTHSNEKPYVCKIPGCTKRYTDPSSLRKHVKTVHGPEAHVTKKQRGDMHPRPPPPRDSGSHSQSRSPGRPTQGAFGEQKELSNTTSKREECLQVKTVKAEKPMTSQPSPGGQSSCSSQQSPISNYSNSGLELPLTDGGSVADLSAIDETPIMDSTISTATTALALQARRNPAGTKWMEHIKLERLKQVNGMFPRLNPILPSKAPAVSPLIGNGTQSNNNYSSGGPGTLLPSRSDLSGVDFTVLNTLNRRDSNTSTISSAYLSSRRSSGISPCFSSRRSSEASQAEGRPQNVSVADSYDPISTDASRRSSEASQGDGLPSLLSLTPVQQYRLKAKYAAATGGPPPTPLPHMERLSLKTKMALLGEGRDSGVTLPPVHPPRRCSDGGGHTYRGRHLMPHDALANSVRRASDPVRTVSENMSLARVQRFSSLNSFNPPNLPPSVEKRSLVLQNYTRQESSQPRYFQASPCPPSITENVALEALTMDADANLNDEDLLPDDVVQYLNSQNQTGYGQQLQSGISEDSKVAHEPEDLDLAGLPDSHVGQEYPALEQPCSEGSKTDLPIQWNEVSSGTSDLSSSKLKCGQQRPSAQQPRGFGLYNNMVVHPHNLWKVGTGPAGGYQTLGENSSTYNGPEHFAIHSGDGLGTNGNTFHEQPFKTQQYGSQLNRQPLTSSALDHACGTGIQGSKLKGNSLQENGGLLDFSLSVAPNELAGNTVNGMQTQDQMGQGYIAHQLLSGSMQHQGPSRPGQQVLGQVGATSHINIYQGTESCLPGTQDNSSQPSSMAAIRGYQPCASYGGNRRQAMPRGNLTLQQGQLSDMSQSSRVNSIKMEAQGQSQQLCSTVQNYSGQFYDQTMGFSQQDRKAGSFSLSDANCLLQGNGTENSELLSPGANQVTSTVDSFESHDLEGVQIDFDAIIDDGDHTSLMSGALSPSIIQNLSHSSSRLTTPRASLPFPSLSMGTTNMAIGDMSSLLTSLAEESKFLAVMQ

No constants are given. Whether binding was seen depends on the method and setting. In cells and extracts the contact can be indirect. Some entries that bind do so weakly or less than the wild type.

“Gli2 (endogenous) (from UniProt Q0VGT2 1-1544)”: the binding result in test [1], in test [2] and in test [3] was “binds” throughout.

Turning to “Gli3 (endogenous) (from UniProt Q61602 1-1583)”, the binding entry in test [2] and in test [3] was “binds” each time.

These data come from publication PMC10879184.
